According to PMC11124525, “Pharmacokinetic–Pharmacodynamic Correlation Analysis of Rhodiola crenulata in Rats with Myocardial Ischemia” (Pharmaceuticals, 2024):
Some results come without the dose or concentration used.

Columns and labels:
AST = assay: PK-PD sigmoid-Emax model, PD index AST in MDG rats; assay type: in vivo, SD rats; settings: shape factor
SOD = assay: PK-PD sigmoid-Emax model, PD index SOD in MDG rats; assay type: in vivo, SD rats; settings: shape factor

| SMILES | γ (AST) | γ (SOD) |
| --- | --- | --- |
| O=C(O)c1cc(O)c(O)c(O)c1 [Gallic Acid, gallic acid] | 0.208 | 0.01 |
| O=c1c(O)c(-c2ccc(O)cc2)oc2cc(O)cc(O)c12 [Kaempferol, kaempferol] | 0.451 | 0.995 |
| OC[C@H]1O[C@@H](OCCc2ccc(O)cc2)[C@H](O)[C@@H](O)[C@@H]1O [Salidroside, salidroside] | 0.233 | 0 |
| OCCc1ccc(O)cc1 [Tyrosol, tyrosol] | 0.38 | 0.078 |
